Results reported in publication PMC7280191.
No constants are given. Whether binding was seen depends on the method and setting. For some assays here: In cells and extracts the contact can be indirect. Some results given as binding are weak or reduced against the parent protein; the word gives no strength.

Amino acid sequences for entries named in this document (tags omitted).
UniProt Q9Z0Z7: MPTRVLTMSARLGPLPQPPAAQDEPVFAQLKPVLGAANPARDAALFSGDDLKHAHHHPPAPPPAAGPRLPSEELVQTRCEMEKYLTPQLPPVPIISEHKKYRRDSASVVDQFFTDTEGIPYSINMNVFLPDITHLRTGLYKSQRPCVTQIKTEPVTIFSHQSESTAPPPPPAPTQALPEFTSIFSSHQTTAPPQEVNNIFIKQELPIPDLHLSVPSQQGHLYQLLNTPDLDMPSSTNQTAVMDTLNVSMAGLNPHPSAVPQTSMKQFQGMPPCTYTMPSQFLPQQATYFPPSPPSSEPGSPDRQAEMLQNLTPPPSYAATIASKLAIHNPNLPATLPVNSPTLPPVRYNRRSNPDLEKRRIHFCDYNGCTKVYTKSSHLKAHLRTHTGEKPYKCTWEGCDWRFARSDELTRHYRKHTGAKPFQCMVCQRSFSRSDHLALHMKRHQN

Legend:
[1] = molecular target: T1, interferon regulatory factor 1 (IRF-1) (mouse (endogenous in MASMCs)) (UniProt P15314); test: two-step ChIP; formaldehyde cross-linked chromatin, anti-Klf-5 and anti-IRF-1 antibodies, AT2R promoter read by qRT-PCR
T1 sequence: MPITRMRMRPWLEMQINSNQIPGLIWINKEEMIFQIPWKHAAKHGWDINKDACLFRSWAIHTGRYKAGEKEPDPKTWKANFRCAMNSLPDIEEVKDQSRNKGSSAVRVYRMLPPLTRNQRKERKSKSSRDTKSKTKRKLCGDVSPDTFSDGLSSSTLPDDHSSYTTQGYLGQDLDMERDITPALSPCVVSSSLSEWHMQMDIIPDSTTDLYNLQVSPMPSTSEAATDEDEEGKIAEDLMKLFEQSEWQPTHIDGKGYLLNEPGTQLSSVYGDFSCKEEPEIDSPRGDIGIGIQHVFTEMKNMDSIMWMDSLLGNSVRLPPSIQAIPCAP

[2] = molecular target: T1, interferon regulatory factor 1 (IRF-1) (mouse (endogenous in MASMCs)); test: co-IP; reciprocal: MASMC lysates immunoprecipitated with anti-IRF-1 or anti-Klf-5, protein A-agarose, 4 °C; washed in 50 mM Tris-HCl pH 8.0, 150 mM NaCl, 5 mM EDTA, 0.5% NP-40; blotted with anti-Klf-5 and anti-IRF-1; cells treated with AT1-AA over time (interaction peaked at 45 min)

binding [1]: binds
binding [2]: binds
Substance: Klf-5 (from UniProt Q9Z0Z7 1-446)
